Counter-ions that a name gives are not always drawn. The list shows a part of the results. The calls rarely recur for the same compound in another form.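 Kinases were expressed as nanoluciferase fusions in K562 cells and luminescence was read every 4 h between 2 and 18 h as percent of control, DMSO set to 100% and a positive control to 0%. A time point counts as decreased when the signal drops significantly (2 sigma). The hit call is the authors' own, does not follow from the count of time points alone, and its rule is not shown.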
How the values were obtained:
Test in all cases: kinase-Nluc reporter destabilization hit call (1 = scored as downregulated) (binary); higher = compound decreases kinase abundance
Conditions in all cases: K562; 2-18 h
IRAK3 = IRAK3 (UniProt Q9Y616)
JAK1 = JAK1 (UniProt P23458)
LCK = LCK (UniProt P06239)
LIMK1 = LIMK1 (UniProt P53667)
LIMK2 = LIMK2 (UniProt P53671)
LMTK2 = LMTK2 (UniProt Q8IWU2)
LYN = LYN (UniProt P07948)
MAP2K1 = MAP2K1 (UniProt Q02750)
MAP2K2 = MAP2K2 (UniProt P36507)
MAP4K2 = MAP4K2 (UniProt Q12851)

Protein sequences, listed by entry. Tags and fused reporters are not part of them. Lines headed by an entry give the natural chain unless they say otherwise; changes in a name come on top.
UniProt Q9Y616: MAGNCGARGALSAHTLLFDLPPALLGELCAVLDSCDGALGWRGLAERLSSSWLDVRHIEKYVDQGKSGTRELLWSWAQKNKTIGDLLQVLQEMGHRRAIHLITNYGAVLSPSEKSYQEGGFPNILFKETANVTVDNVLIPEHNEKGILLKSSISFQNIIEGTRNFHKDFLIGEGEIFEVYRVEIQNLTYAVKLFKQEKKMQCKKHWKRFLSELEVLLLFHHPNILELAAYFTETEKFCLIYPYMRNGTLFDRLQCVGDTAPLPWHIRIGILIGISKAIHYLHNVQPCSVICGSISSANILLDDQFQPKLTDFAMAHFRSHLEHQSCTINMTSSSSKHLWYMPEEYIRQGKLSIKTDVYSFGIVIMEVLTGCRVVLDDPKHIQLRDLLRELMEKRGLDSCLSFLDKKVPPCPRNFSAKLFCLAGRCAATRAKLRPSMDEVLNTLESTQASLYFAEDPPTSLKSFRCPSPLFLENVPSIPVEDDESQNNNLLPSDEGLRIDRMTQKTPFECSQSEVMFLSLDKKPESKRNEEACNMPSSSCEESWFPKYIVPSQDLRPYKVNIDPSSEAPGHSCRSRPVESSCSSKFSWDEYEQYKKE
UniProt P23458: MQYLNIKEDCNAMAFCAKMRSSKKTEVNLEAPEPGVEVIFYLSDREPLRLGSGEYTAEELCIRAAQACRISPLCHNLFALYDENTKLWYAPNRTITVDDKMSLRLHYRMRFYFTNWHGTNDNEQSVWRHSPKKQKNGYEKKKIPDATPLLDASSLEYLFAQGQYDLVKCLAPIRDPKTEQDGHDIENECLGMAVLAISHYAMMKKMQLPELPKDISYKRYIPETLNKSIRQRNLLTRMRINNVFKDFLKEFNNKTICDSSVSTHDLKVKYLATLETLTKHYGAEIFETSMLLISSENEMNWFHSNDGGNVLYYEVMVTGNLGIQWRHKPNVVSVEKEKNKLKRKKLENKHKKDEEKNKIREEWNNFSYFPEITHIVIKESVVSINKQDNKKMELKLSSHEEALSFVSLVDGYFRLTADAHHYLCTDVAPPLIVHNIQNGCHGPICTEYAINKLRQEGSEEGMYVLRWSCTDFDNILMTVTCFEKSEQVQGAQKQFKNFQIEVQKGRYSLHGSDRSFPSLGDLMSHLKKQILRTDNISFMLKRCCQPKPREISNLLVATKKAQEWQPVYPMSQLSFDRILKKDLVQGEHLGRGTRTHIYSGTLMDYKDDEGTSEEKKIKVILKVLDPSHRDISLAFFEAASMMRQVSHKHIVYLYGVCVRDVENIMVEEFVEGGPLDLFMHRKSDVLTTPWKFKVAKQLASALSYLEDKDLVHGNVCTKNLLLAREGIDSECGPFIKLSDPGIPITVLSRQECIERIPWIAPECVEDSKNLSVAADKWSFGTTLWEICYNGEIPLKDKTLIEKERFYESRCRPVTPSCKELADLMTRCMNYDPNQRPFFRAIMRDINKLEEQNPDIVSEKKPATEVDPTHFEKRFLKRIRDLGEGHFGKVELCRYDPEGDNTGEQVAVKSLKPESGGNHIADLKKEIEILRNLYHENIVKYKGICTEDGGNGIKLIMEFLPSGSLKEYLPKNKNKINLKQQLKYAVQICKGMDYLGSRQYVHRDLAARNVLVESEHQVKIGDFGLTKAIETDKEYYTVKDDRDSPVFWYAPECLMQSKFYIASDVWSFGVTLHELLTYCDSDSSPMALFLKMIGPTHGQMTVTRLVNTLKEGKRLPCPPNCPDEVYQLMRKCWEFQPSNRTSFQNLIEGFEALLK
UniProt P06239: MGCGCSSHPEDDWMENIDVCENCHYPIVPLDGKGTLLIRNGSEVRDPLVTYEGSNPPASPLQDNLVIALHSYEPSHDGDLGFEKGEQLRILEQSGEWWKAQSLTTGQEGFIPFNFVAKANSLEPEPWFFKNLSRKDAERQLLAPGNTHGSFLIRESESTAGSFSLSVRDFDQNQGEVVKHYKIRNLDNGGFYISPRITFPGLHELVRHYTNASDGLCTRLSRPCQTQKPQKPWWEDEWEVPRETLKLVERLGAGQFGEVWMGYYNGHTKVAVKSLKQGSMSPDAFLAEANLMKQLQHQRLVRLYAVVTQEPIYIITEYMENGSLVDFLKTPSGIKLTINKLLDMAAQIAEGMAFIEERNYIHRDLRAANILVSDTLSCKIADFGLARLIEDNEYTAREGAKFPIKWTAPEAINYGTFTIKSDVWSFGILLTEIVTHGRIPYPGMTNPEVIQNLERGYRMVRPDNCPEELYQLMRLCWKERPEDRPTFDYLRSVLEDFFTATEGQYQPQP
UniProt P53667: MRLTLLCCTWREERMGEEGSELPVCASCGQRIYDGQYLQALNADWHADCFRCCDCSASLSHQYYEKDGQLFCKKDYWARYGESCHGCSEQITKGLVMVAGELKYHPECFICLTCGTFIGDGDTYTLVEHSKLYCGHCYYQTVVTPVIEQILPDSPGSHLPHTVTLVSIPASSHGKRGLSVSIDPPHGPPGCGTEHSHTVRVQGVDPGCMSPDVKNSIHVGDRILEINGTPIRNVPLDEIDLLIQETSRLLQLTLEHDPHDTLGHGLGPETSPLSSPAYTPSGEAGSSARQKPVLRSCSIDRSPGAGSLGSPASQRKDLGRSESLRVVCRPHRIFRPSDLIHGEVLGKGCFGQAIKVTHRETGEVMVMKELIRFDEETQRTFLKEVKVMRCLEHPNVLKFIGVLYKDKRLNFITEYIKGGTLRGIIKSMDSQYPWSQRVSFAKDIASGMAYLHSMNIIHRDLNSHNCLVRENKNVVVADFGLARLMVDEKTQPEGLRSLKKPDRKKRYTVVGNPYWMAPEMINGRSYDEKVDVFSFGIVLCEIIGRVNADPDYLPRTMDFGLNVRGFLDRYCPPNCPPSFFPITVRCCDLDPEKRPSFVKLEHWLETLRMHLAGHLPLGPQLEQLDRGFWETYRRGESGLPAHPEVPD
UniProt P53671: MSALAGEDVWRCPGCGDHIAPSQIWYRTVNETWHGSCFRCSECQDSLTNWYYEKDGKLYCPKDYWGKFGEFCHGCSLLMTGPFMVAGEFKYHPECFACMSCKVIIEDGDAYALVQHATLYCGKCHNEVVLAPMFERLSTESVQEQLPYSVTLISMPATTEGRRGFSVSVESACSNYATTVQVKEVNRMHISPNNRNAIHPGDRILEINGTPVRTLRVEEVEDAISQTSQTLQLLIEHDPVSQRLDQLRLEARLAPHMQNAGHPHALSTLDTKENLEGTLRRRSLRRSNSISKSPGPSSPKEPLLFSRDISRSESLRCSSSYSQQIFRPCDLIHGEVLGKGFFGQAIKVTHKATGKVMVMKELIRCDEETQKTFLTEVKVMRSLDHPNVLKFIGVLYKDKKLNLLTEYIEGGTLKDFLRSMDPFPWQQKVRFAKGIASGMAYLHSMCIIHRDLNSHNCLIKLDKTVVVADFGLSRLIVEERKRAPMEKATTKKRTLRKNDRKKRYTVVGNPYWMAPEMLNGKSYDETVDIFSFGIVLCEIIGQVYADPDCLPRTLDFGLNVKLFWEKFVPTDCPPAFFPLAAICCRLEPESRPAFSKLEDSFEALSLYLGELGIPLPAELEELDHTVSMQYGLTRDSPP
UniProt Q8IWU2: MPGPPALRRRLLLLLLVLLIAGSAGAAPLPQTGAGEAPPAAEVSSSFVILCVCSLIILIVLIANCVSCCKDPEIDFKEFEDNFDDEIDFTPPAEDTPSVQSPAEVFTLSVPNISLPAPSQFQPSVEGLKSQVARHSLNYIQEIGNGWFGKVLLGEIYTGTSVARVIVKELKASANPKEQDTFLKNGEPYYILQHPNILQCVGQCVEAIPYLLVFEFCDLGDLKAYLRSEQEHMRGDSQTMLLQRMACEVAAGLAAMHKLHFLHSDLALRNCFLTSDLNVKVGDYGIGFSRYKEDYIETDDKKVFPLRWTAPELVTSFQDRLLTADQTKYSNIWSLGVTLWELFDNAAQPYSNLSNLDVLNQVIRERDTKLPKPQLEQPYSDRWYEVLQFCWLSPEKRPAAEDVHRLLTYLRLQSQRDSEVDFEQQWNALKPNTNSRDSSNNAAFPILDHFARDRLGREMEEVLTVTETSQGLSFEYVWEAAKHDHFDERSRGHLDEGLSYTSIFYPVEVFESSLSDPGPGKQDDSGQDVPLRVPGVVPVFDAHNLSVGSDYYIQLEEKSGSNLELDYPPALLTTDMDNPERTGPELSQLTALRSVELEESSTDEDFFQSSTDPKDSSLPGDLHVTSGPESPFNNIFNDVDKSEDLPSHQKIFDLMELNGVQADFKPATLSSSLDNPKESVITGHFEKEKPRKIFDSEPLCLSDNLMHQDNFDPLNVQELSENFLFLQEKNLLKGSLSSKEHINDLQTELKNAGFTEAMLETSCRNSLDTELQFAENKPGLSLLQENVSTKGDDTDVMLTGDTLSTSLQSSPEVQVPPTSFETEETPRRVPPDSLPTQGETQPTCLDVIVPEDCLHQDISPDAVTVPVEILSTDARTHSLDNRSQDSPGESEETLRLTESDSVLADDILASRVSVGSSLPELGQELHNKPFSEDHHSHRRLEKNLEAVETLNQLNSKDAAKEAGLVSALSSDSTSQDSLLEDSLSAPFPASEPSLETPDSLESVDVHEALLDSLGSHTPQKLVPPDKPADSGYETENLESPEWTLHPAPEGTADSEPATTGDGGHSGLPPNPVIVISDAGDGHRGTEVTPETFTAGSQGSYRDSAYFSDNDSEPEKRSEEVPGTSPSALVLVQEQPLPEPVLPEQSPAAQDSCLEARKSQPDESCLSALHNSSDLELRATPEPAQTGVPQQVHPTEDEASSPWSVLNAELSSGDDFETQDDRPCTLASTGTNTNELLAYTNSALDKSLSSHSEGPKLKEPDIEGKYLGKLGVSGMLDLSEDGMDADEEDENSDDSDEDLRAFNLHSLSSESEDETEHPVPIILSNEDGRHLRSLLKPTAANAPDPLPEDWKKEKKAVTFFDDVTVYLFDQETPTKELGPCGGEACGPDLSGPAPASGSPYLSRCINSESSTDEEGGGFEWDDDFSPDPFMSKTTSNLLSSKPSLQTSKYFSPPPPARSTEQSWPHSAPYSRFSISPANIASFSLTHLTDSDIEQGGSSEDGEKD
UniProt P07948: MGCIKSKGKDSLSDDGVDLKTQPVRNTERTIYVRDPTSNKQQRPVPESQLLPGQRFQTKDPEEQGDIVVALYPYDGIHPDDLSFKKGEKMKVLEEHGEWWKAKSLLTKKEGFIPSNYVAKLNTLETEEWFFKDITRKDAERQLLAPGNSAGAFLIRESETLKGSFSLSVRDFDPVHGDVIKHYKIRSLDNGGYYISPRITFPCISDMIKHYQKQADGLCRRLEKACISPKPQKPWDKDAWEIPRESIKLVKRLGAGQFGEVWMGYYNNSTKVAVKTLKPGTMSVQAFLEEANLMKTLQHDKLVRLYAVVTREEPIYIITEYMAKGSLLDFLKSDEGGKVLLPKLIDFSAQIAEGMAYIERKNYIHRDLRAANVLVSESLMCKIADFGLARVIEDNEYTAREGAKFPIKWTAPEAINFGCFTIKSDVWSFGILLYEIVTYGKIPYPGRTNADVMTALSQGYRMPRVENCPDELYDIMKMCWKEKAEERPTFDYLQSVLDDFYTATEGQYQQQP
UniProt Q12851: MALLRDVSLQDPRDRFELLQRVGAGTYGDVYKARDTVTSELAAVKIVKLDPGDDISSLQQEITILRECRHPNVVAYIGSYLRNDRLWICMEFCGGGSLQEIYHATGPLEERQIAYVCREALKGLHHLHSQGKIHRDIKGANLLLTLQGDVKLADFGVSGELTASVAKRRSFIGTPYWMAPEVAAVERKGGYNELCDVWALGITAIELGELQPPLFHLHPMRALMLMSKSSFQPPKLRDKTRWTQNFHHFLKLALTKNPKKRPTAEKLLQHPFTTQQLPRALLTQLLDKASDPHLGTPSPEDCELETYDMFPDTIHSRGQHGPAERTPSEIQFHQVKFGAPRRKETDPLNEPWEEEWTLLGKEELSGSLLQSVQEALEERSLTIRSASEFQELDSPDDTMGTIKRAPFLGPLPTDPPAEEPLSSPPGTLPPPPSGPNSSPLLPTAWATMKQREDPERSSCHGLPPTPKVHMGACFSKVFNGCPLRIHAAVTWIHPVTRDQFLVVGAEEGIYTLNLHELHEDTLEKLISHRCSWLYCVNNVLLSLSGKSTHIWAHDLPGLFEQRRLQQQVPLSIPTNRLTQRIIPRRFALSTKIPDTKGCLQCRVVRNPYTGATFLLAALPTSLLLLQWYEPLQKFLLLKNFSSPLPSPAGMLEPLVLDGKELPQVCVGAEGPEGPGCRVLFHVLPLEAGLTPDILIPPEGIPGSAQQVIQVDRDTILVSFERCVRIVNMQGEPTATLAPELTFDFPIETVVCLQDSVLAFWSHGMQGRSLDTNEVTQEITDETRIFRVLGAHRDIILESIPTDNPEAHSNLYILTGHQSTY

Measured: kinase-Nluc reporter destabilization hit call

Cc1c(Cl)cccc1S(=O)(=O)Nc1nc(NCCc2ccccc2)nc2c1CN(Cc1ccccc1)CC2 (2.5 µM)
inactive: IRAK3 = 0 | JAK1 = 0 | LCK 0 | LIMK1 = 0 | LIMK2 = 0 | LMTK2 = 0 | LYN 0 | MAP2K1 = 0 | MAP2K2 = 0 | MAP4K2 = 0

C=C1C(=O)[C@@]23[C@H](O)C[C@@H]4C(C)(C)C(=O)CC[C@@]4(C)[C@@H]2CC[C@@H]1[C@H]3O [Glaucocalyxin A] (2.5 µM)
inactive: IRAK3 = 0 | JAK1 = 0 | LCK 0 | LIMK1 = 0 | LIMK2 = 0 | LMTK2 = 0 | LYN 0 | MAP2K1 = 0 | MAP2K2 = 0 | MAP4K2 = 0

Cc1ccc(-n2nc(C(C)(C)C)cc2NC(=O)Nc2ccc(OCCN3CCOCC3)cc2)cc1 (10 µM)
inactive: IRAK3 = 0 | JAK1 = 0 | LCK 0 | LIMK1 = 0 | LIMK2 = 0 | LMTK2 = 0 | LYN 0 | MAP2K1 = 0 | MAP2K2 = 0 | MAP4K2 = 0

Cc1cccc(COc2cccc(/C=C3\C(=O)NN(c4ccccc4)C3=O)c2)c1 (10 µM)
inactive: IRAK3 = 0 | JAK1 = 0 | LCK 0 | LIMK1 = 0 | LIMK2 = 0 | LMTK2 = 0 | LYN 0 | MAP2K1 = 0 | MAP2K2 = 0 | MAP4K2 = 0

CN1CCN(c2cc(-c3ccncc3)c(-c3ccc4ccccc4c3)nn2)CC1 (10 µM)
inactive: IRAK3 = 0 | JAK1 = 0 | LCK 0 | LIMK1 = 0 | LIMK2 = 0 | LMTK2 = 0 | LYN 0 | MAP2K1 = 0 | MAP2K2 = 0 | MAP4K2 = 0

Nc1ncc(-c2ccnc(Nc3ccncc3)n2)c(CC2CC2)n1 (10 µM)
inactive: IRAK3 = 0 | JAK1 = 0 | LCK 0 | LIMK1 = 0 | LIMK2 = 0 | LMTK2 = 0 | LYN 0 | MAP2K1 = 0 | MAP2K2 = 0 | MAP4K2 = 0

NC1(C(=O)NCCCn2cc(-c3ccc(OC(F)(F)F)cc3)c3cc(CN4CCN(Cc5c(Cl)cccc5Cl)CC4)ccc32)CCNCC1 (2.5 µM)
inactive: IRAK3 = 0 | JAK1 = 0 | LCK 0 | LIMK1 = 0 | LIMK2 = 0 | LMTK2 = 0 | LYN 0 | MAP2K1 = 0 | MAP2K2 = 0 | MAP4K2 = 0

Cn1cc(-c2cc(Oc3cc(F)c(NC(=O)C4(C(=O)Nc5ccccc5)CC4)cc3F)ccn2)cn1 (2.5 µM)
inactive: IRAK3 = 0 | JAK1 = 0 | LCK 0 | LIMK1 = 0 | LIMK2 = 0 | LMTK2 = 0 | LYN 0 | MAP2K1 = 0 | MAP2K2 = 0 | MAP4K2 = 0

C=CC(=O)Nc1ccc(C(=O)Nc2[nH]nc3c2CN(C(=O)N[C@H](CN(C)C)c2ccccc2)C3(C)C)cc1 (10 µM)
inactive: IRAK3 = 0 | JAK1 = 0 | LCK 0 | LIMK1 = 0 | LIMK2 = 0 | LMTK2 = 0 | LYN 0 | MAP2K1 = 0 | MAP2K2 = 0 | MAP4K2 = 0

No new results follow: two of the compounds above.
CN1CCN(c2cc(-c3ccncc3)c(-c3ccc4ccccc4c3)nn2)CC1 (10 µM)
inactive: IRAK3 = 0 | JAK1 = 0 | LCK 0 | LIMK1 = 0 | LIMK2 = 0 | LMTK2 = 0 | LYN 0 | MAP2K1 = 0 | MAP2K2 = 0 | MAP4K2 = 0

Nc1ncc(-c2ccnc(Nc3ccncc3)n2)c(CC2CC2)n1 (10 µM)
inactive: IRAK3 = 0 | JAK1 = 0 | LCK 0 | LIMK1 = 0 | LIMK2 = 0 | LMTK2 = 0 | LYN 0 | MAP2K1 = 0 | MAP2K2 = 0 | MAP4K2 = 0

(continued)

CC(C)=CC[C@@H](O)C1=CC(=O)c2c(O)ccc(O)c2C1=O [Shikonin] (10 µM)
inactive: IRAK3 = 0 | JAK1 = 0 | LCK 0 | LIMK1 = 0 | LIMK2 = 0 | LMTK2 = 0 | LYN 0 | MAP2K1 = 0 | MAP2K2 = 0 | MAP4K2 = 0

CCC(=O)Nc1cccc(Oc2nc(Nc3ccc(N4CCN(C)CC4)cc3OC)ncc2Cl)c1 (10 µM)
inactive: IRAK3 = 0 | JAK1 = 0 | LCK 0 | LIMK1 = 0 | LIMK2 = 0 | LMTK2 = 0 | LYN 0 | MAP2K1 = 0 | MAP2K2 = 0 | MAP4K2 = 0

CN1CCN(c2ccc(Nc3ncc4cc(C#N)c(=O)n(C5CCCC5)c4n3)cc2)CC1 (10 µM)
inactive: IRAK3 = 0 | JAK1 = 0 | LCK 0 | LIMK1 = 0 | LIMK2 = 0 | LMTK2 = 0 | LYN 0 | MAP2K1 = 0 | MAP2K2 = 0 | MAP4K2 = 0

CC(C)(C)Cc1[nH]nc2c1[C@@](C)(c1ccccc1)C1=C(CC(C)(C)CC1=O)N2 (10 µM)
inactive: IRAK3 = 0 | JAK1 = 0 | LCK 0 | LIMK1 = 0 | LIMK2 = 0 | LMTK2 = 0 | LYN 0 | MAP2K1 = 0 | MAP2K2 = 0 | MAP4K2 = 0

N#Cc1cnc2c(Cl)cc(NCc3cn(CCN4CCCCCC4)nn3)cc2c1Nc1ccc(F)c(Cl)c1 [Cot inhibitor-1] (10 µM)
inactive: IRAK3 = 0 | JAK1 = 0 | LCK 0 | LIMK1 = 0 | LIMK2 = 0 | LMTK2 = 0 | LYN 0 | MAP2K1 = 0 | MAP2K2 = 0 | MAP4K2 = 0

O=C(O)c1ccc(/C=C/S(=O)(=O)Cc2ccc(Cl)cc2)cc1 [Recilisib] (10 µM)
inactive: IRAK3 = 0 | JAK1 = 0 | LCK 0 | LIMK1 = 0 | LIMK2 = 0 | LMTK2 = 0 | LYN 0 | MAP2K1 = 0 | MAP2K2 = 0 | MAP4K2 = 0

COc1cc2c(cc1O)C[C@H]1c3cc(O)c(OC)cc3CC[N@@+]1(C)C2 [Phellodendrine] (10 µM)
inactive: IRAK3 = 0 | JAK1 = 0 | LCK 0 | LIMK1 = 0 | LIMK2 = 0 | LMTK2 = 0 | LYN 0 | MAP2K1 = 0 | MAP2K2 = 0 | MAP4K2 = 0

Cc1cc(C(=O)Nc2nc3cccc(Cl)c3n2[C@@H]2CCCCN(C(=O)/C=C/CN(C)C)C2)ccn1 [Nazartinib] (10 µM)
inactive: IRAK3 = 0 | JAK1 = 0 | LCK 0 | LIMK1 = 0 | LIMK2 = 0 | LMTK2 = 0 | LYN 0 | MAP2K1 = 0 | MAP2K2 = 0 | MAP4K2 = 0

C=C1CCC[C@]2(C)C=C3OC(=O)C(C)=C3C[C@@H]12 [Atractylenolide I] (10 µM)
inactive: IRAK3 = 0 | JAK1 = 0 | LCK 0 | LIMK1 = 0 | LIMK2 = 0 | LMTK2 = 0 | LYN 0 | MAP2K1 = 0 | MAP2K2 = 0 | MAP4K2 = 0

CO[C@H]1C[C@@H]2CC[C@@H](C)[C@@](O)(O2)C(=O)C(=O)N2CCCC[C@H]2C(=O)O[C@H]([C@H](C)C[C@@H]2CC[C@@H](OCCO)[C@H](OC)C2)CC(=O)[C@H](C)/C=C(\C)[C@@H](O)[C@@H](OC)C(=O)[C@H](C)C[C@H](C)/C=C/C=C/C=C/1C [Everolimus] (10 µM)
inactive: IRAK3 = 0 | JAK1 = 0 | LCK 0 | LIMK1 = 0 | LIMK2 = 0 | LMTK2 = 0 | LYN 0 | MAP2K1 = 0 | MAP2K2 = 0 | MAP4K2 = 0

O=C(Nc1cccc(-c2nc(-c3ccc(NC(=O)c4cccnc4)cc3Cl)no2)c1)Nc1ccc(NC(=O)C2CC2)c(C(F)(F)F)c1 (2.5 µM)
inactive: IRAK3 = 0 | JAK1 = 0 | LCK 0 | LIMK1 = 0 | LIMK2 = 0 | LMTK2 = 0 | LYN 0 | MAP2K1 = 0 | MAP2K2 = 0 | MAP4K2 = 0

Cc1nc[nH]c1CN1CCN(C(=O)N[C@@H](CC(C)C)C(=O)O)[C@@H](Cc2ccccc2)C1=O (10 µM)
inactive: IRAK3 = 0 | JAK1 = 0 | LCK 0 | LIMK1 = 0 | LIMK2 = 0 | LMTK2 = 0 | LYN 0 | MAP2K1 = 0 | MAP2K2 = 0 | MAP4K2 = 0

Cc1cc([C@@H](C)Nc2ccccc2C(=O)O)c2nc(N3CCOCC3)cc(=O)n2c1 (10 µM)
inactive: IRAK3 = 0 | JAK1 = 0 | LCK 0 | LIMK1 = 0 | LIMK2 = 0 | LMTK2 = 0 | LYN 0 | MAP2K1 = 0 | MAP2K2 = 0 | MAP4K2 = 0

COc1ccc(Br)cc1NC(=O)Nc1cccc2c1ccn2Cc1ccnc(N)c1 (2.5 µM)
inactive: IRAK3 = 0 | JAK1 = 0 | LCK 0 | LIMK1 = 0 | LIMK2 = 0 | LMTK2 = 0 | LYN 0 | MAP2K1 = 0 | MAP2K2 = 0 | MAP4K2 = 0

CC(O)(C#Cc1ccc2c(c1)N(c1nc(N)ncc1Cl)CC2)c1nccs1 (stereo not given) (2.5 µM)
inactive: IRAK3 = 0 | JAK1 = 0 | LCK 0 | LIMK1 = 0 | LIMK2 = 0 | LMTK2 = 0 | LYN 0 | MAP2K1 = 0 | MAP2K2 = 0 | MAP4K2 = 0

O=C1OC(/C=C/c2ccccc2)=NC/1=C\c1cccnc1 (10 µM)
inactive: IRAK3 = 0 | JAK1 = 0 | LCK 0 | LIMK1 = 0 | LIMK2 = 0 | LMTK2 = 0 | LYN 0 | MAP2K1 = 0 | MAP2K2 = 0 | MAP4K2 = 0

CCN(CC)CCCC(C)Nc1nc(C)cc(Nc2ccc3nc(C)cc(N)c3c2)n1 (stereo not given) (10 µM)
inactive: IRAK3 = 0 | JAK1 = 0 | LCK 0 | LIMK1 = 0 | LIMK2 = 0 | LMTK2 = 0 | LYN 0 | MAP2K1 = 0 | MAP2K2 = 0 | MAP4K2 = 0

CC1(N)CCN(c2cccnc2NC(=O)c2nc(-c3ncccc3C(F)(F)F)cnc2N)CC1 [Darovasertib] (10 µM)
inactive: IRAK3 = 0 | JAK1 = 0 | LCK 0 | LIMK1 = 0 | LIMK2 = 0 | LMTK2 = 0 | LYN 0 | MAP2K1 = 0 | MAP2K2 = 0 | MAP4K2 = 0

NCCOc1ccc(Cl)cc1C(=O)Nc1ccc([N+](=O)[O-])cc1Cl [HJC0152 hydrochloride] (2 µM)
inactive: IRAK3 = 0 | JAK1 = 0 | LCK 0 | LIMK1 = 0 | LIMK2 = 0 | LMTK2 = 0 | LYN 0 | MAP2K1 = 0 | MAP2K2 = 0 | MAP4K2 = 0

CCN(CC)CCOc1ccc(Nc2nc(-c3ccccc3NC(=O)CCN3CCN(C)CC3)nc3ccccc23)cc1 (2.5 µM)
inactive: IRAK3 = 0 | JAK1 = 0 | LCK 0 | LIMK1 = 0 | LIMK2 = 0 | LMTK2 = 0 | LYN 0 | MAP2K1 = 0 | MAP2K2 = 0 | MAP4K2 = 0
